Data as given in PubChem BioAssay AID1259254 (NCATS, 2017)
Shown is a random part of about 59,000 reagents tested. About 1,550 of all reagents (2.6%) were called active. 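G2 share is only a proxy for re-replication; each gene was hit by three separate siRNAs, and active genes were retested.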 The numbers tell different reagents against one gene apart. Further read-outs or replicates are left out here. Not given: the amount of reagent.

Purpose: 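Finding genes that stop cells copying their DNA twice in one cycle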 (primary screen)
Cells: human HCT116 colorectal cancer cells
Knock-down reagent: single siRNA against human genes
Time to read-out: 3 days
Detection: 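Nuclei stained with Hoechst and imaged; cell-cycle phase assigned by DNA content; G2 share scaled per plate, non-targeting siRNA 0%, GMNN siRNA 100%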
Direction: G2 robust z-score: higher = more G2 cells, more excess DNA replication
Call rule: 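Active siRNAs have a G2 robust z of 5 or more median absolute deviations over the median, which in these data means about 38% or higher of GMNN control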

no.	Target gene	reagent no.	G2 robust z-score	activity call
1	EPS8L1	1	0.331	inactive
2	EPS8L1	2	1.29	inactive
3	EPS8L1	3	-1.03	inactive
4	FRMD8	1	1.16	inactive
5	FRMD8	2	-0.0765	inactive
6	FRMD8	3	-0.521	inactive
7	MASP2	1	5.77	active
8	MASP2	2	-1.18	inactive
9	MASP2	3	-0.736	inactive
10	RCN2	1	0.201	inactive
11	RCN2	2	-0.402	inactive
12	RCN2	3	0.847	inactive
13	EXTL1	1	-0.871	inactive
14	EXTL1	2	1.21	inactive
15	EXTL1	3	-0.627	inactive
16	FAM50B	1	-0.702	inactive
17	FAM50B	2	1.53	inactive
18	FAM50B	3	1.56	inactive
19	PDK3	1	1.02	inactive
20	PDK3	2	-1.04	inactive
21	PDK3	3	-0.883	inactive
22	COQ7	1	-0.634	inactive
23	COQ7	2	-0.59	inactive
24	COQ7	3	-0.865	inactive
25	UQCR11	1	-0.158	inactive
26	UQCR11	2	-0.557	inactive
27	UQCR11	3	1.46	inactive
28	CASP5	1	3.46	inactive
29	CASP5	2	-0.388	inactive
30	CASP5	3	1.98	inactive

Reformatted: 4 of the entries above
MASP2 #1 → G2 robust z-score: 5.77; activity call: active
MASP2 #2 → G2 robust z-score: -1.18; activity call: inactive
MASP2 #3 → G2 robust z-score: -0.736; activity call: inactive
RCN2 #1 → G2 robust z-score: 0.201; activity call: inactive
